PubChem BioAssay AID1259308, NCATS | 2017
Here is one part, drawn at random, of about 59,000 reagents tested. Over the whole deposit, about 1,510 (2.6%) got an active call. 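Calls use total luciferase alone and ignore viability, so some active siRNAs may act by altering cell number.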 Unmarked entries are inactive. The numbers tell different reagents against one gene apart.

- Purpose: 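Candidate targets for better recombinant protein yield in mammalian cells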 (primary screen)
- System: human HEK293 embryonic kidney cells stably expressing firefly luciferase (HEK-CMV-Luc2-Hygro)
- Reagents: single siRNA against human genes, 0.8 pmol siRNA per well
- Time to read-out: 72 h
- Measured: 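Luciferase light (ONE-Glo) measured on one replicate plate set and viability (CellTiter-Glo) on the other, scaled to a negative control siRNA, with robust z-scores and luciferase per cell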
- Reading the numbers: total luciferase, z-score and total luciferase, % of control: higher = more reporter protein produced; luciferase per cell, z-score: higher = more reporter output per viable cell; viable cells, % of control: higher = more viable cells
- Hit rule: 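An siRNA counts as active if its total luciferase robust z-score exceeds 3; genes with two or more such siRNAs out of three were retested with fresh siRNAs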
- Calls: active = raised luciferase; inactive = no rise

The opening 6 entries as a preview:
Target gene | reagent no. | total luciferase, z-score | total luciferase, % of control | luciferase per cell, z-score | viable cells, % of control
MTCL1 | 1 | -1.47 | 52.6 | -1.25 | 81.6
MTCL1 | 2 | -0.0817 | 80.3 | -0.491 | 102
MTCL1 | 3 | 0.0683 | 83.2 | 1.69 | 59.6
RPL4 | 1 | -1.54 | 51.2 | -0.484 | 65
RPL4 | 2 | -2.39 | 34.4 | -1.63 | 59
RPL4 | 3 | -2.71 | 28 | -2.94 | 67.8

Results, from the first entry:
Target gene | reagent no. | total luciferase, z-score | total luciferase, % of control | luciferase per cell, z-score | viable cells, % of control
MTCL1 | 1 | -1.47 | 52.6 | -1.25 | 81.6
MTCL1 | 2 | -0.0817 | 80.3 | -0.491 | 102
MTCL1 | 3 | 0.0683 | 83.2 | 1.69 | 59.6
RPL4 | 1 | -1.54 | 51.2 | -0.484 | 65
RPL4 | 2 | -2.39 | 34.4 | -1.63 | 59
RPL4 | 3 | -2.71 | 28 | -2.94 | 67.8
PCDHB13 | 1 | 0.65 | 94.8 | 0.822 | 85.3
PCDHB13 | 2 | 0.0847 | 83.6 | -0.305 | 101
PCDHB13 | 3 | 1.96 | 121 | 2.77 | 65.1
SYCN | 1 | 0.791 | 97.6 | -0.0158 | 110
SYCN | 2 | 0.541 | 92.7 | 0.354 | 94.3
SYCN | 3 | -1.13 | 59.3 | -0.551 | 76.7
BEND5 | 1 | -0.329 | 75.3 | -0.614 | 99
BEND5 | 2 | 0.682 | 95.5 | 0.295 | 98.7
BEND5 | 3 | -1.04 | 61.2 | -0.53 | 78.6
CAP2 | 1 | -0.456 | 72.8 | -0.255 | 87
CAP2 | 2 | 3.9 (active) | 160 | 4.16 | 59.7
CAP2 | 3 | 0.143 | 84.7 | 0.153 | 91
PSPH | 1 | 1.7 | 116 | 0.91 | 102
PSPH | 2 | 0.655 | 94.9 | 0.238 | 99.6
PSPH | 3 | 0.808 | 97.9 | 0.595 | 93.6
ADGRL1 | 1 | -0.565 | 70.6 | -0.24 | 84.1
ADGRL1 | 2 | -0.307 | 75.8 | -0.0212 | 85.2
ADGRL1 | 3 | 1.07 | 103 | 2.75 | 56
FKBP1A | 1 | 0.0562 | 83 | -0.357 | 102
FKBP1A | 2 | -0.936 | 63.3 | -1.29 | 99.2
FKBP1A | 3 | -0.145 | 79 | -1.09 | 118
TMEM256P1 | 1 | 0.0819 | 83.5 | -0.434 | 105
TMEM256P1 | 2 | -0.947 | 63.1 | -0.879 | 88.8
TMEM256P1 | 3 | 0.726 | 96.3 | 0.143 | 104
CCDC90B | 1 | 3.78 (active) | 157 | 3.2 | 75.6
CCDC90B | 2 | 0.431 | 90.5 | -0.145 | 105
CCDC90B | 3 | -0.212 | 77.7 | 0.195 | 82.4
FBN2 | 1 | 1.41 | 110 | 1.28 | 87.8
FBN2 | 2 | -0.867 | 64.6 | -1.13 | 97.3
FBN2 | 3 | 0.867 | 99.1 | 0.32 | 102
AGK | 1 | 1.96 | 121 | 1.86 | 82.8
AGK | 2 | 0.692 | 95.7 | 0.0493 | 106
AGK | 3 | -0.272 | 76.5 | -0.0781 | 87.2
LAT | 1 | 0.865 | 99.1 | 0.63 | 93.8
LAT | 2 | -0.829 | 65.4 | -1.18 | 99.7
LAT | 3 | 0.076 | 83.4 | -0.378 | 103
KCNMB3 | 1 | 0.097 | 83.8 | -0.183 | 98.3
KCNMB3 | 2 | 0.17 | 85.3 | -0.214 | 101
KCNMB3 | 3 | -0.0754 | 80.4 | -0.222 | 95.2
SLC4A8 | 1 | -0.478 | 72.4 | -0.268 | 86.8
SLC4A8 | 2 | -0.0114 | 81.7 | 0.329 | 83.7
SLC4A8 | 3 | -0.822 | 65.5 | -1.35 | 104
ISM2 | 1 | 0.544 | 92.7 | 1.12 | 77.2
ISM2 | 2 | 0.591 | 93.6 | 0.162 | 100
ISM2 | 3 | -0.494 | 72.1 | -0.811 | 99.7
TUSC1 | 1 | 1.66 | 115 | 1.31 | 90.9
TUSC1 | 2 | -0.601 | 69.9 | 0.0306 | 77.5
TUSC1 | 3 | 0.24 | 86.7 | -0.0114 | 97.1
RNF43 | 1 | 0.808 | 98 | 1.82 | 67.7
RNF43 | 2 | -2.23 | 37.5 | -1.65 | 64.6
RNF43 | 3 | -0.889 | 64.2 | -1.02 | 93.8
